Results are given in words; binding and its absence hold for the method and conditions named. Binding seen in cells or lysates may run through a third protein. Some results given as binding are weak or reduced against the parent protein; the word gives no strength. Each block holds one substance with its values, some of them ahead of it.
Experiments:
[1] = biological target: ODC antizyme inhibitor 1 (AZIN1), human (human) (UniProt O14977); test: co-IP; Cos-7 cells co-transfected with FLAG- and Myc-tagged constructs; FLAG-tagged protein immunoprecipitated from lysate with mouse anti-FLAG antibody and protein G-agarose; co-precipitated Myc-tagged protein detected by blot with rabbit anti-Myc antibody (Figure 5, Supplementary Fig. S4)
ODC antizyme 1 (OAZ1) = ODC antizyme 1 (OAZ1) (UniProt P54368); test: co-IP; Cos-7 cells co-transfected with FLAG- and Myc-tagged constructs; Myc-tagged protein immunoprecipitated from lysate with mouse anti-Myc antibody and protein G-agarose; co-precipitated FLAG-tagged protein detected by blot with rabbit anti-FLAG antibody (Figure 6A)
[2] = biological target: ornithine decarboxylase (ODC), mouse (mouse) (UniProt P00860); test: as above
[3] = biological target: ornithine decarboxylase (ODC), mouse (mouse) (UniProt P00860); test: co-IP; Cos-7 cells co-transfected with FLAG- and Myc-tagged constructs; FLAG-tagged protein immunoprecipitated from lysate with mouse anti-FLAG antibody and protein G-agarose; co-precipitated Myc-tagged protein detected by blot with rabbit anti-Myc antibody (Figure 5, Supplementary Fig. S4)

The chains behind the UniProt entries cited, without tags or fusion partners.
UniProt O14977: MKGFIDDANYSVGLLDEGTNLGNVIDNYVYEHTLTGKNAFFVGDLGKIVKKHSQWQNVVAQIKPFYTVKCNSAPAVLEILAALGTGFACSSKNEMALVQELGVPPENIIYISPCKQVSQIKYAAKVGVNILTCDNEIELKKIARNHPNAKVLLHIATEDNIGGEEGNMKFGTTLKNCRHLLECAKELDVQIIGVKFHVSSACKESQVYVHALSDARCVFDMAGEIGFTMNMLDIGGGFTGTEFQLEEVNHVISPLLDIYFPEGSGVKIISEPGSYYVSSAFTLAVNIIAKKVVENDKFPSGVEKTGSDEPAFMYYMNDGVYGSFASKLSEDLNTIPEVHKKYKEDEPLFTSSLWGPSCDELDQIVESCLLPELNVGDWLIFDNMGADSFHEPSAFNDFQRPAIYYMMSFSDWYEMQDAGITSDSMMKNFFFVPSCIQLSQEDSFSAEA
UniProt P54368: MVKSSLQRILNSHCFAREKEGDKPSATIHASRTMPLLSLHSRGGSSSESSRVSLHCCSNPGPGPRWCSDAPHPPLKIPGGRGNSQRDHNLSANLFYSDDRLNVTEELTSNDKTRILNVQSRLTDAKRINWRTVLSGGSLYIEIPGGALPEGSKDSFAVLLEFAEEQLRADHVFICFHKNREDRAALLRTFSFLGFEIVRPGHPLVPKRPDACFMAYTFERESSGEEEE
UniProt P00860: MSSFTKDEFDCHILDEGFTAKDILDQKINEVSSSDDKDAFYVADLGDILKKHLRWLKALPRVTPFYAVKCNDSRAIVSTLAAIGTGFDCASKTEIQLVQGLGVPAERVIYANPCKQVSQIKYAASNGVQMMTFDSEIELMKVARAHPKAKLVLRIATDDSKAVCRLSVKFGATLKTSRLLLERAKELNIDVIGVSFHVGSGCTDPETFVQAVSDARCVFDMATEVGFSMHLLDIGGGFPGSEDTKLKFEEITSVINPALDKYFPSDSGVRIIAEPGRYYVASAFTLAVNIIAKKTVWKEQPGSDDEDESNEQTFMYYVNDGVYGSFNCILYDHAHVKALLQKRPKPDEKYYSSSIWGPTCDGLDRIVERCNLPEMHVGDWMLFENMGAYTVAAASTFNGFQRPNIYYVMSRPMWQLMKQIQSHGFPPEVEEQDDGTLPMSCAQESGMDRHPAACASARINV

binding [1]: binds
Substance: ODC antizyme 1 (OAZ1) (from UniProt P54368 1-228)

binding (ODC antizyme 1 (OAZ1)): binds
Substance: ODC antizyme inhibitor 1 (AZIN1), human (from UniProt O14977 1-448)

binding [2]: binds | binding [3]: binds
Substance: ornithine decarboxylase (ODC), mouse (from UniProt P00860 1-461) (enzyme)

— paper PMC5518511
